# In PubChem BioAssay AID504847 (National Center for Advancing Translational Sciences (NCATS), 2011):
# Chains of the proteins cited; added tags and fusions are not shown.
# UniProt P11473, whole entry, looked up: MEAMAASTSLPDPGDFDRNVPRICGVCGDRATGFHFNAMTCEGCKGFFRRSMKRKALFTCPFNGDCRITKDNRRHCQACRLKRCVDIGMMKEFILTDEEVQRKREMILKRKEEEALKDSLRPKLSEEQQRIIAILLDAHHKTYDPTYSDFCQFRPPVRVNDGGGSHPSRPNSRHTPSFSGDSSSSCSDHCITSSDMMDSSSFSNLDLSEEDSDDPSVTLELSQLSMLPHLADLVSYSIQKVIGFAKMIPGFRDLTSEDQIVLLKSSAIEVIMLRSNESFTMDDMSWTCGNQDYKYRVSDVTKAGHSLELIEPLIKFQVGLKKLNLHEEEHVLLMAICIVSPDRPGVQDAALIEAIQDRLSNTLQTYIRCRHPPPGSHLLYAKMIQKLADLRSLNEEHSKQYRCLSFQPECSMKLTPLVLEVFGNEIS
# Hit rate of the full screen: of about 400,000 compounds, about 3,700 (0.93%) were called active. The shares of active, inactive and inconclusive entries below differ from those in the screen. Calls come from the whole dose curve; as a rule, active = well fitted inhibition curve with a large enough effect; inconclusive = small, poorly fitted or top-dose-only effect, or another doubt; inactive = no such curve, though single readings can be large or run the other way. A potency beside an inconclusive call is a rough fit, not a confirmed value.
# Biological target: Vitamin D3 receptor (Homo sapiens) (UniProt P11473)
# Test: Inhibitors of the vitamin D receptor (VDR): qHTS
# Conditions: VDR-SRC2-3 peptide fluorescence polarization, 2 h; max response, negative = inhibition: active compounds read low
# Description: The vitamin D receptor (VDR) is a ligand-activated transcription factor and is partially responsible for the regulation of the endocrine system. This includes the transcriptional regulation of genes involved in the production of the parathyroid hormone (PTH) and the regulation of the blood calcium level. High levels of PHT can cause hypercalcemia in the case of primary and tertiary hyperparathyroidism. The VDR-mediated gene regulation, activated by its ligand 1,25-dihydroxyvitamin D3 (1,25-(OH)2D3), is governed by the recruitment of coactivators. Our hypothesis is that small molecules, with the ability to inhibit the interaction between VDR and certain coactivators, are able to selectively modulate VDR-mediated transcription. Our long term objective is the application these VDR-coactivator inhibitors to study the role of VDR-coactivator binding for specific VDR regulated genes. Ultimately, these molecules can be developed into new treatments for hypercalcemic hyperparathyroidism. No small molecule or non-peptide inhibitors are known for the VDR-coactivator interaction.
# In a collaboration between the University of Wisconsin, Milwaukee and the NIH Chemical Genomics Center (NCGC) a HTS-compatible enzymatic assay was developed. The assay uses fluorescence polarization as its read-out to measure the inhibition between VDR and coregulator peptide SRC2-3 exerted by small molecules. This assay was used to screen the NIH Molecular Libraries Small Molecule Repository (MLSMR).
# NIH Chemical Genomics Center [NCGC]
# NIH Molecular Libraries Probe Centers Network [MLPCN]
# Assay Submitter (PI): Alexander Arnold, University of Wilwaukee
# Both solutions are kept at 4 deg C and protected from light and dispensed using a Kalypsys dispenser. Then 23nl of compounds and controls are added with Kalypsys pintool. […] Plate is centrifuged at 1000 RPM for 15 seconds to remove any residual bubbles. The plate is then incubate at ambient room temperature for 2 hours.
# % is set by controls: 0 for no effect and ±100 for the full control effect; potency is the fitted concentration of half-maximal effect.
Compound,Potency,"max response, negative = inhibition"
COc1cc(C)ccc1OCc1cc(C(=O)N2CCCCCC2)no1,"inconclusive: 14.1 µM [inhibitor, single point]",–
CSc1nnc(CSc2cc(C)nc(N(C)C)n2)o1,"inconclusive: 15.8 µM [inhibitor, partial curve]",–
O=C1NC(=O)/C(=C\c2ccc(Oc3ccc([N+](=O)[O-])cn3)cc2)S1,"inconclusive: 79.4 µM [inhibitor, partial curve, poor fit]",–
COCCOC(=O)c1c(C)n(C)c2ccc(OC(=O)c3c(OC)cccc3OC)cc12,"inconclusive: 100 µM [inhibitor, single point]",–
O=S(=O)(NCc1ccco1)c1cccc(S(=O)(=O)N2CCOCC2)c1,"inconclusive: 15.8 µM [inhibitor, partial curve, poor fit]",–
Cc1ccc(S(=O)(=O)/N=C2/NC(=O)/C(=C/c3ccc(Br)o3)S2)cc1,"inconclusive: 89.1 µM [inhibitor, single point]",–
CCn1ccc(C(=O)NC2=NCCS2)n1,"inconclusive: 56.2 µM [inhibitor, single point]",–
CC(C)C[C@@H](CNCC(=O)[C@H](Cc1c[nH]c2ccccc12)NC(=O)c1[nH]cnc1C(=O)N[C@@H](C)CN)NC(=O)c1nc[nH]c1C(=O)N[C@@H](CC(=O)O)C(=O)O,"inconclusive: 100 µM [inhibitor, single point]",–
COc1cc(/C=C2\C(=N)N3N=C(C)SC3=NC2=O)cc(OC)c1OCCOc1ccccc1C,"inconclusive: 15.8 µM [inhibitor, full curve, poor fit]",–
CCOC(=O)CSC1=C(C#N)C(=O)NC(c2ccc(OC)c(OC)c2)S1 (configuration not stated),"inconclusive: 100 µM [inhibitor, single point]",–
Cc1nc(-c2cccc(S(=O)(=O)N3CCOCC3)c2)cs1,"inconclusive: 89.1 µM [inhibitor, single point]",–
COC(=O)c1ccc(-n2c(C)cc(/C=N/n3cnnc3)c2C)cc1,–,inactive: 6.01%
Cc1cc(C)nc(SCc2cc(=O)c(OC(=O)c3ccc(Cl)c([N+](=O)[O-])c3)co2)n1,"inconclusive: 70.8 µM [inhibitor, partial curve]",–
COc1ccc(CCNC(=O)C2CCN(C(=O)c3ccc(Br)cc3)CC2)cc1,"inconclusive: 35.5 µM [inhibitor, partial curve, poor fit]",–
C=CCn1c(SCC(=O)Nc2ccc(-c3nc4ccc(C)cc4s3)cc2)nnc1-c1ccncc1,"inconclusive: 100 µM [inhibitor, single point]",–
COc1ccc(NC(=O)C2CCN(C(=O)C3CC(=O)N(c4ccc(C)cc4)C3)CC2)c(OC)c1 (configuration not stated),–,inactive: 26.3%
N[C@@H](CO)C(=O)NNCc1ccc(O)c(O)c1O,active: 31.6 µM,–
c1ccc(C2CSc3ccccc3N2)cc1 (configuration not stated),"inconclusive: 89.1 µM [inhibitor, single point]",–
N#CC1=C(Nc2ccccc2Cl)SC(c2ccccc2O)NC1=O (configuration not stated),active: 20 µM,–
O=C(c1ccccc1)c1cc([N+](=O)[O-])ccc1N1CCOCC1,"inconclusive: 70.8 µM [inhibitor, partial curve, poor fit]",–
CCOC(=O)C1CCN(C(=O)c2ccccc2NC(=O)c2ccc(Cl)cc2)CC1,"inconclusive: 44.7 µM [inhibitor, partial curve]",–
Cc1ccc(C(NC(=O)C2CCCCC2)c2c(O)ccc3ccccc23)cc1 (configuration not stated),–,inactive: -20.5%
CC(=O)c1cccc(OCc2cc(C(=O)N(C)CCC3CCOCC3)no2)c1,–,inactive: 7.17%

Compound,Potency,"max response, negative = inhibition"
CCOC(=O)c1c(NC(=O)COc2cccc(C(F)(F)F)c2)sc2c1CCC(C)C2 (configuration not stated),"inconclusive: 79.4 µM [inhibitor, single point]",–
Cn1c(=O)n(Cc2ccccc2Cl)c2ccccc21,"inconclusive: 28.2 µM [inhibitor, single point]",–
O=C(CN1C(=O)S/C(=C\c2ccc(Cl)cc2)C1=O)NC1C=CS(=O)(=O)C1 (configuration not stated),"inconclusive: 35.5 µM [inhibitor, single point]",–
COC(=O)c1ccc(NC(=O)C2CCCN2C(=O)Nc2cccc(C(C)=O)c2)cc1 (configuration not stated),"inconclusive: 89.1 µM [inhibitor, single point]",–
NS(=O)(=O)c1ccc(S(=O)(=O)N2CCN(c3nc(-c4cccs4)nc4ccccc34)CC2)cc1,"inconclusive: 100 µM [inhibitor, single point]",–
CCCNC(=O)NNC(=O)c1ccc(F)cc1,"inconclusive: 89.1 µM [inhibitor, single point]",–
CCOC(=O)C1=C(O)/C(=C/c2ccc(OCC(=O)O)c(OCC)c2)SC1=Nc1ccc(C)cc1,"inconclusive: 56.2 µM [inhibitor, partial curve, poor fit]",–
O=C(COc1ccc(/C=C\[N+](=O)[O-])cc1)N1CCOCC1,"inconclusive: 79.4 µM [inhibitor, partial curve]",–
O=[N+]([O-])c1ccc(O)c(/C=N/n2c(-c3ccccc3)n[nH]c2=S)c1,–,inactive: -13.9%
COCCn1c(C)cc(O)c(C(c2ccccc2)N2CCC(C)CC2)c1=O (configuration not stated),"inconclusive: 39.8 µM [inhibitor, single point]",–
COc1ccc(CCNC(=O)C(=O)NCC2OCCN2S(=O)(=O)c2ccccc2)cc1OC (configuration not stated),–,inactive: -18.5%
O=C1/C(=C/c2cccc([N+](=O)[O-])c2)CCc2ccccc21,"inconclusive: 50.1 µM [inhibitor, partial curve, poor fit]",–
Cc1ccc(S(=O)(=O)Nc2nc(C)c(NC(=O)OCCCl)s2)cc1,active: 89.1 µM,–
O=C(N/N=C/c1ccc(N2CCOCC2)cc1)c1ccccc1OCCOc1ccccc1,"inconclusive: 28.2 µM [inhibitor, single point]",–
Cc1c2c(c(O)c3c(O)cccc13)C(=O)O[C@H]2C1C(N(C)C)C(O)=C(C(N)=O)C(=O)[C@H]1O (some centres not stated),active: 15.8 µM,–
Cc1cccc(C(=O)CC(=O)c2cc(Cl)ccc2O)c1,–,inactive: 23.6%
COc1ccc(/C=C/C(=O)N(Cc2cccs2)C2CCS(=O)(=O)C2)cc1 (configuration not stated),–,inactive: 8.55%
O=C(Cc1cccs1)NC1CCCC1,"inconclusive: 70.8 µM [inhibitor, partial curve, poor fit]",–
Cc1cc2nc(-c3ccc[nH]c3=O)n(Cc3cccc(F)c3)c2cc1C,"inconclusive: 11.2 µM [inhibitor, partial curve, poor fit]",–
OC(CN1CCc2ccccc2C1)c1ccccc1 (configuration not stated),"inconclusive: 100 µM [inhibitor, single point]",–
COc1ccc(-c2nc3cc(C(C)C)ccc3o2)cc1NC(=O)c1ccccc1[N+](=O)[O-],–,inactive: 7.31%
CN(C)c1ccc(-n2cc3c(=O)n(C)c(=O)n(C)c3c2)cc1,–,inactive: 6.35%
CN(C)c1ccc(C=Cc2cnccn2)cc1,–,inactive: 2.18%

# Three entries picked at random from the list so far:
Compound,Potency,"max response, negative = inhibition"
O=C(Cc1cccs1)NC1CCCC1,"inconclusive: 70.8 µM [inhibitor, partial curve, poor fit]",–
COC(=O)c1ccc(NC(=O)C2CCCN2C(=O)Nc2cccc(C(C)=O)c2)cc1 (configuration not stated),"inconclusive: 89.1 µM [inhibitor, single point]",–
OC(CN1CCc2ccccc2C1)c1ccccc1 (configuration not stated),"inconclusive: 100 µM [inhibitor, single point]",–

# The list goes on:

Compound,Potency,"max response, negative = inhibition"
COC(=O)c1ccc(NC(=O)CC2C(=O)N(c3cccc(OC)c3)C(=O)N2Cc2ccco2)cc1 (configuration not stated),–,inactive: 0.396%
CC(C)[C@@H]1NC(=O)[C@@H](Cc2ccccc2)NC(=O)[C@H](CC(=O)O)NC(=O)CNC(=O)[C@H](CCCN=C(N)N)NC1=O,–,inactive: 9.16%
C/C(=N/N=C1\SCC(=O)N1c1ccccc1)c1ccc(C)cc1,"inconclusive: 100 µM [inhibitor, single point]",–
CN(C)c1ccc(-c2nc(NCc3cccnc3)c3ccccc3n2)cc1,"inconclusive: 70.8 µM [inhibitor, single point]",–
O=C(C=P(c1ccccc1)(c1ccccc1)c1ccccc1)c1ccccc1-c1ccccc1C(=O)C=P(c1ccccc1)(c1ccccc1)c1ccccc1,"inconclusive: 100 µM [inhibitor, single point]",–
Oc1ccc(F)c2cccnc12,active: 39.8 µM,–
CCN(CC(=O)Nc1c(F)cccc1F)C(=O)Cc1ccccc1,"inconclusive: 100 µM [inhibitor, single point]",–
O=S(=O)(c1ccccc1)N1CCC(c2ccccc2)CC1,"inconclusive: 17.8 µM [inhibitor, single point]",–
COc1ccc2c(Cl)c(C(=O)N/N=C/c3cccnc3)sc2c1,–,inactive: -11%
COC(=O)CC1C(=O)NCCN1C(=O)CSc1nc2ccccc2s1 (configuration not stated),"inconclusive: 50.1 µM [inhibitor, partial curve, poor fit]",–
CN(C)c1ccc(NC(=O)Nc2csc3ccccc23)cc1,–,inactive: 0%
CCCCCCCC/C=C\CCCCCCCC(=O)NCCc1ccc(O)c(O)c1,"inconclusive: 44.7 µM [inhibitor, partial curve]",–
Cc1cc(C)nc(SCC(=O)N/N=C/c2cc(C)n(-c3ccccc3C)c2C)n1,–,inactive: -7.86%
O=C1C(O)=C(O)C(=O)c2ccccc21,active: 8.91 µM,–
COc1ccc(-n2c(Cc3cccn3C)nnc2SCC(=O)Nc2ccccc2F)cc1,"inconclusive: 8.91 µM [inhibitor, full curve, poor fit]",–
CC(=O)c1cccc(OCC(O)CNCCc2ccc(Cl)cc2)c1 (configuration not stated),–,inactive: 0.114%
CCC(CC)=NNc1cccc([N+](=O)[O-])c1,–,inactive: -8.56%
Cc1ccc(NC(=S)NNC(=O)Nc2ccccc2)cc1,–,inactive: 4.45%
Cc1nc(NS(=O)(=O)c2ccc(N)cc2)nc(C)c1Br,–,inactive: 1.45%
COc1cc(-c2nc(-c3ccc4c(c3)-c3ccccc3S4(=O)=O)c(-c3ccccc3)[nH]2)cc(OC)c1O,–,inactive: -6.01%
CCCn1c(C)cc(C(=O)COc2ccc(-c3nnco3)cc2)c1C,"inconclusive: 79.4 µM [inhibitor, single point]",–
